# Laboratory results from the supplement of paper PMC8728848.
# The other results are listed elsewhere or left out.
# B1: Erv46-EDTA (Saccharomyces cerevisiae), P39727 (protein)
# chain: MKFLVNVALVFMVVYISYIYAAAPEHHHHHHDYDIPTTENLYFQGAMDSVVTRPQLVVDRDRHAKLELNMDVTFPSMPCDLVNLDIMDDSGEMQLDILDAGFTMSRLNSEGRPVGDATELHVGGNGDGTAPVNNDPNYCGPCYGAKDQSQNENLAQEEKVCCQDCDAVRSAYLEAGWAFFDGKNIEQCEREGYVSKINEHLNEGCRIKGSAQINRIQGNLHFAPGKPYQNAYGHFHDTSLYDKTSNLNFNHIINHLSFGKPIQSHSKLLGNDKRHGGAVVATSPLDGRQVFPDRNTHFHQFSYFAKIVPTRYEYLDNVVIETAQFSATFHSRPLAGGRDKDHPNTLHVRGGIPGMFVFFEMSPLKVINKEQ
# How the values were obtained:
# Assay in all cases: glycan array binding signal (z-score within array); higher = stronger binding
# Conditions in all cases: glycan notation: IUPAC condensed, linker removed
# Gal(a1-3)GalNAc = target: Gal(a1-3)GalNAc
# In short: (§1)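 Glycan array binding is given as a within-array Z-score, which can be read as non-binding when negative. The arrays, 3228 of them, came from the Consortium for Functional Glycomics database and were retained only where the protein sequence was available. Z-scores were averaged across arrays of the same protein sequence at different concentrations or buffers and across linkers.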
# [1] = target: Gal(a1-3)[Gal(a1-4)]Gal(b1-4)GlcNAc
# In short: as §1
# [2] = target: Gal(a1-4)Gal(b1-3)GlcNAc(b1-2)Man(a1-3)[Gal(a1-4)Gal(b1-3)GlcNAc(b1-2)Man(a1-6)]Man(b1-4)GlcNAc(b1-4)GlcNAc
# In short: as §1
# Gal(a1-4)Gal(b1-4)Glc = target: Gal(a1-4)Gal(b1-4)Glc
# In short: as §1
# Gal(a1-4)Gal(b1-4)GlcNAc = target: Gal(a1-4)Gal(b1-4)GlcNAc
# In short: as §1
# [3] = target: Gal(a1-4)Gal(b1-4)GlcNAc(b1-2)Man(a1-3)[Gal(a1-4)Gal(b1-4)GlcNAc(b1-2)Man(a1-6)]Man(b1-4)GlcNAc(b1-4)GlcNAc
# In short: as §1
# [4] = target: Gal(a1-4)Gal(b1-4)GlcNAc(b1-3)Gal(b1-4)Glc
# In short: as §1
# Gal(a1-4)GlcNAc = target: Gal(a1-4)GlcNAc
# In short: as §1
# Gal(a1-6)Glc = target: Gal(a1-6)Glc
# In short: as §1
# Gal(b1-2)Gal = target: Gal(b1-2)Gal
# In short: as §1
# Gal(b1-3)Gal = target: Gal(b1-3)Gal
# In short: as §1
# Gal(b1-3)Gal(b1-4)GlcNAc = target: Gal(b1-3)Gal(b1-4)GlcNAc
# In short: as §1
# Gal(b1-3)GalNAc = target: Gal(b1-3)GalNAc
# In short: as §1
# [5] = target: Gal(b1-3)GalNAc(a1-3)[Fuc(a1-2)]Gal(b1-4)Glc
# In short: as §1
# [6] = target: Gal(b1-3)GalNAc(a1-3)[Fuc(a1-2)]Gal(b1-4)GlcNAc
# In short: as §1
# Gal(b1-3)GalNAc(b1-3)Gal = target: Gal(b1-3)GalNAc(b1-3)Gal
# In short: as §1
# [7] = target: Gal(b1-3)GalNAc(b1-3)Gal(a1-4)Gal(b1-4)Glc
# In short: as §1
# [8] = target: Gal(b1-3)GalNAc(b1-4)Gal(b1-4)Glc
# In short: as §1
# [9] = target: Gal(b1-3)GalNAc(b1-4)[Neu5Ac(a2-3)]Gal(b1-4)Glc
# In short: as §1
# Gal(b1-3)GlcNAc = target: Gal(b1-3)GlcNAc
# In short: as §1
# [10] = target: Gal(b1-3)GlcNAc(a1-3)Gal(b1-4)GlcNAc
# In short: as §1
# [11] = target: Gal(b1-3)GlcNAc(a1-6)Gal(b1-4)GlcNAc
# In short: as §1
# Gal(b1-3)GlcNAc(b1-2)Man = target: Gal(b1-3)GlcNAc(b1-2)Man
# In short: as §1
# [12] = target: Gal(b1-3)GlcNAc(b1-2)Man(a1-3)[Gal(b1-3)GlcNAc(b1-2)Man(a1-6)]Man(b1-4)GlcNAc(b1-4)GlcNAc
# In short: as §1
# [13] = target: Gal(b1-3)GlcNAc(b1-2)Man(a1-3)[Gal(b1-3)GlcNAc(b1-2)Man(a1-6)]Man(b1-4)GlcNAc(b1-4)[Fuc(a1-6)]GlcNAc
# In short: as §1
# [14] = target: Gal(b1-3)GlcNAc(b1-2)Man(a1-3)[GlcNAc(b1-4)][Gal(b1-3)GlcNAc(b1-2)Man(a1-6)]Man(b1-4)GlcNAc(b1-4)GlcNAc
# In short: as §1
# [15] = target: Gal(b1-3)GlcNAc(b1-2)[Gal(b1-3)GlcNAc(b1-6)]Man(a1-6)[Gal(b1-3)GlcNAc(b1-2)Man(a1-3)]Man(b1-4)GlcNAc(b1-4)GlcNAc
# In short: as §1
# [16] = target: Gal(b1-3)GlcNAc(b1-3)Gal(b1-3)GlcNAc
# In short: as §1
# [17] = target: Gal(b1-3)GlcNAc(b1-3)Gal(b1-4)Glc
# In short: as §1
# [18] = target: Gal(b1-3)GlcNAc(b1-3)Gal(b1-4)GlcNAc
# In short: as §1
# [19] = target: Gal(b1-3)GlcNAc(b1-3)Gal(b1-4)GlcNAc(b1-2)Man(a1-3)[Gal(b1-3)GlcNAc(b1-3)Gal(b1-4)GlcNAc(b1-2)Man(a1-6)]Man(b1-4)GlcNAc(b1-4)GlcNAc
# In short: as §1
# [20] = target: Gal(b1-3)GlcNAc(b1-3)Gal(b1-4)GlcNAc(b1-2)[Gal(b1-3)GlcNAc(b1-3)Gal(b1-4)GlcNAc(b1-6)]Man(a1-6)[Gal(b1-3)GlcNAc(b1-3)Gal(b1-4)GlcNAc(b1-2)Man(a1-3)]Man(b1-4)GlcNAc(b1-4)[Fuc(a1-6)]GlcNAc
# In short: as §1
# [21] = target: Gal(b1-3)GlcNAc(b1-3)Gal(b1-4)GlcNAc(b1-3)Gal(b1-4)GlcNAc(b1-2)[Gal(b1-3)GlcNAc(b1-3)Gal(b1-4)GlcNAc(b1-3)Gal(b1-4)GlcNAc(b1-6)]Man(a1-6)[Gal(b1-3)GlcNAc(b1-3)Gal(b1-4)GlcNAc(b1-3)Gal(b1-4)GlcNAc(b1-2)Man(a1-3)]Man(b1-4)GlcNAc(b1-4)[Fuc(a1-6)]GlcNAc
# In short: as §1
# [22] = target: Gal(b1-3)GlcNAc(b1-3)Gal(b1-4)GlcNAc(b1-6)[Gal(b1-3)GlcNAc(b1-3)]Gal(b1-4)Glc
# In short: as §1
# [23] = target: Gal(b1-3)GlcNAc(b1-3)Gal(b1-4)[Fuc(a1-3)]GlcNAc
# In short: as §1
# [24] = target: Gal(b1-3)GlcNAc(b1-3)Gal(b1-4)[Fuc(a1-3)]GlcNAc(b1-6)[Gal(b1-3)GlcNAc(b1-3)]Gal(b1-4)Glc
# In short: as §1
# [25] = target: Gal(b1-3)GlcNAc(b1-3)GalNAc
# In short: as §1
# [26] = target: Gal(b1-3)GlcNAc(b1-6)Gal(b1-4)GlcNAc
# In short: as §1
binder,measurement,setting,value
B1,glycan array binding signal (z-score),Gal(a1-3)GalNAc,-0.543
same,glycan array binding signal (z-score),[1],-0.095
same,glycan array binding signal (z-score),[2],-0.683
same,glycan array binding signal (z-score),Gal(a1-4)Gal(b1-4)Glc,0.54
same,glycan array binding signal (z-score),Gal(a1-4)Gal(b1-4)GlcNAc,0.087
same,glycan array binding signal (z-score),[3],0.047
same,glycan array binding signal (z-score),[4],-0.465
same,glycan array binding signal (z-score),Gal(a1-4)GlcNAc,0.382
same,glycan array binding signal (z-score),Gal(a1-6)Glc,0.66
same,glycan array binding signal (z-score),Gal(b1-2)Gal,0.267
same,glycan array binding signal (z-score),Gal(b1-3)Gal,-0.198
same,glycan array binding signal (z-score),Gal(b1-3)Gal(b1-4)GlcNAc,0.071
same,glycan array binding signal (z-score),Gal(b1-3)GalNAc,0.046
same,glycan array binding signal (z-score),[5],-0.47
same,glycan array binding signal (z-score),[6],-0.147
same,glycan array binding signal (z-score),Gal(b1-3)GalNAc(b1-3)Gal,-0.564
same,glycan array binding signal (z-score),[7],-0.249
same,glycan array binding signal (z-score),[8],-0.792
same,glycan array binding signal (z-score),[9],-0.138
same,glycan array binding signal (z-score),Gal(b1-3)GlcNAc,0.457
same,glycan array binding signal (z-score),[10],-0.727
same,glycan array binding signal (z-score),[11],-0.279
same,glycan array binding signal (z-score),Gal(b1-3)GlcNAc(b1-2)Man,0.036
same,glycan array binding signal (z-score),[12],1.12
same,glycan array binding signal (z-score),[13],0.136
same,glycan array binding signal (z-score),[14],1.03
same,glycan array binding signal (z-score),[15],-0.482
same,glycan array binding signal (z-score),[16],-0.355
same,glycan array binding signal (z-score),[17],0.148
same,glycan array binding signal (z-score),[18],-0.08
same,glycan array binding signal (z-score),[19],0.126
same,glycan array binding signal (z-score),[20],1.78
same,glycan array binding signal (z-score),[21],1.09
same,glycan array binding signal (z-score),[22],-0.342
same,glycan array binding signal (z-score),[23],-0.817
same,glycan array binding signal (z-score),[24],-0.818
same,glycan array binding signal (z-score),[25],-1.05
same,glycan array binding signal (z-score),[26],-0.702

# 7 neighbouring records already listed:
binder,measurement,setting,value
B1,glycan array binding signal (z-score),[3],0.047
same,glycan array binding signal (z-score),[4],-0.465
same,glycan array binding signal (z-score),Gal(a1-4)GlcNAc,0.382
same,glycan array binding signal (z-score),Gal(a1-6)Glc,0.66
same,glycan array binding signal (z-score),Gal(b1-2)Gal,0.267
same,glycan array binding signal (z-score),Gal(b1-3)Gal,-0.198
same,glycan array binding signal (z-score),Gal(b1-3)Gal(b1-4)GlcNAc,0.071
